Results on two substances are retold here after article PMC8584520.

Amino acid sequences for entries named in this document (tags omitted). A change or cut given only in a name is not applied to a line headed by its entry.
UniProt Q86R88: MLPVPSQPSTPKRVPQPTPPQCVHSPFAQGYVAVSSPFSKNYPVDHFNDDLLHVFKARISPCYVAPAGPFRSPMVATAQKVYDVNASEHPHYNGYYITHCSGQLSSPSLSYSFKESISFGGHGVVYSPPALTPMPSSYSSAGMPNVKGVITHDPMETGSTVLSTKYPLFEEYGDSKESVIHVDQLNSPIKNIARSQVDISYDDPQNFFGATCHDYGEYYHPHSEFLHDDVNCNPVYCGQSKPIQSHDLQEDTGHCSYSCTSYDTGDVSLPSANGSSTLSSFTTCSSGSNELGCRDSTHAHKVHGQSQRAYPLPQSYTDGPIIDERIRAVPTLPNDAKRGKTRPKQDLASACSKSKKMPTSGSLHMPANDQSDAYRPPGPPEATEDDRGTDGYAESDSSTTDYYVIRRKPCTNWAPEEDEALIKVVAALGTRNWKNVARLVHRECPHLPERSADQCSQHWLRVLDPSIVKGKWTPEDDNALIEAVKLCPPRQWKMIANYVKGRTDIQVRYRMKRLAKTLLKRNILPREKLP
UniProt Q86C20: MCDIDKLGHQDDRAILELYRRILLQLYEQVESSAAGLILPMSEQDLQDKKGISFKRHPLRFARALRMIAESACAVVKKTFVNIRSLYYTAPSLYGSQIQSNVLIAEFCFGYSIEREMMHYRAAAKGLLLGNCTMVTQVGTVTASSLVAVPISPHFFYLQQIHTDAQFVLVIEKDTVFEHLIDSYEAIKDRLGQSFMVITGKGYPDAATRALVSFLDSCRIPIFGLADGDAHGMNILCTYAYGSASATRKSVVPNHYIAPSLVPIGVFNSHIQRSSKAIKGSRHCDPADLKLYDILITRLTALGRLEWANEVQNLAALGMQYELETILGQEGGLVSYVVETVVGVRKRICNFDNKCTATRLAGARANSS

Test [1] has as its target MYB2 (G. lamblia (endogenous in WB trophozoites)) (UniProt Q86R88). The experiment in a line: co-IP; reciprocal: lysates of pPSpo11 stable transfectants in encystation medium for 24 h; 2 μg anti-WRKY or anti-MYB2 antibody or preimmune serum for 2 h, then protein G plus/protein A-agarose for 1 h; Western blot with anti-HA.
Test [2] addresses HA-tagged Giardia lamblia Spo11 (Spo11-HA) (G. lamblia) (UniProt Q86C20). The experiment in a line: co-IP; lysates of pPSpo11 stable transfectants (control: 5'Δ5N-Pac) cultured in encystation medium for 24 h; anti-HA antibody conjugated to beads; Western blot with anti-HA, anti-WRKY, anti-MYB2, anti-ISCS. Background: Immunoblotting shows a protein as a band on a membrane.

No constants are given. Whether binding was seen depends on the method and setting. Binding seen in cells or lysates may run through a third protein. A result given as binding can be weak or reduced; the word gives no strength.

In the case of “HA-tagged Giardia lamblia Spo11 (Spo11-HA) (from UniProt Q86C20)”, the binding entry in test [1] was “binds”.

In the case of MYB2 (from UniProt Q86R88), the binding entry in test [2] is listed as “binds”.
